# The list shows a part of the results.
# Legend:
# Assay in all cases: glycan array binding signal (z-score within array); higher = stronger binding
# Settings in all cases: glycan notation: IUPAC condensed, linker removed
# [1] = target: Gal(b1-4)GlcNAc(b1-3)Gal(b1-4)GlcNAc(b1-3)Gal(b1-4)GlcNAc(b1-2)Man(a1-3)[Gal(b1-4)GlcNAc(b1-3)Gal(b1-4)GlcNAc(b1-3)Gal(b1-4)GlcNAc(b1-2)Man(a1-6)]Man(b1-4)GlcNAc(b1-4)GlcNAc
# Procedure, shortened: (§1)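 Negative Z-scores can be read as non-binding. The Z-score is calculated within each array and then averaged across arrays of one protein sequence at different concentrations or buffers and across linkers. Arrays, 3228 in all, were curated from the Consortium for Functional Glycomics database and kept only where the protein sequence was available.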
# [2] = target: Gal(b1-4)GlcNAc(b1-3)Gal(b1-4)GlcNAc(b1-3)Gal(b1-4)GlcNAc(b1-2)Man(a1-3)[Gal(b1-4)GlcNAc(b1-3)Gal(b1-4)GlcNAc(b1-3)Gal(b1-4)GlcNAc(b1-2)Man(a1-6)]Man(b1-4)GlcNAc(b1-4)[Fuc(a1-6)]GlcNAc
# Procedure, shortened: as §1
# [3] = target: Gal(b1-4)GlcNAc(b1-3)Gal(b1-4)GlcNAc(b1-3)Gal(b1-4)GlcNAc(b1-2)[Gal(b1-4)GlcNAc(b1-3)Gal(b1-4)GlcNAc(b1-3)Gal(b1-4)GlcNAc(b1-6)]Man(a1-6)[Gal(b1-4)GlcNAc(b1-3)Gal(b1-4)GlcNAc(b1-3)Gal(b1-4)GlcNAc(b1-2)Man(a1-3)]Man(b1-4)GlcNAc(b1-4)[Fuc(a1-6)]GlcNAc
# Procedure, shortened: as §1
# [4] = target: Gal(b1-4)GlcNAc(b1-3)Gal(b1-4)GlcNAc(b1-3)Gal(b1-4)GlcNAc(b1-3)Gal(b1-4)GlcNAc(b1-2)Man(a1-3)[Gal(b1-4)GlcNAc(b1-3)Gal(b1-4)GlcNAc(b1-3)Gal(b1-4)GlcNAc(b1-3)Gal(b1-4)GlcNAc(b1-2)Man(a1-6)]Man(b1-4)GlcNAc(b1-4)GlcNAc
# Procedure, shortened: as §1
# [5] = target: Gal(b1-4)GlcNAc(b1-3)Gal(b1-4)GlcNAc(b1-3)Gal(b1-4)GlcNAc(b1-3)Gal(b1-4)GlcNAc(b1-2)Man(a1-3)[Gal(b1-4)GlcNAc(b1-3)Gal(b1-4)GlcNAc(b1-3)Gal(b1-4)GlcNAc(b1-3)Gal(b1-4)GlcNAc(b1-2)Man(a1-6)]Man(b1-4)GlcNAc(b1-4)[Fuc(a1-6)]GlcNAc
# Procedure, shortened: as §1
# [6] = target: Gal(b1-4)GlcNAc(b1-3)Gal(b1-4)GlcNAc(b1-3)Gal(b1-4)GlcNAc(b1-3)Gal(b1-4)GlcNAc(b1-2)[Gal(b1-4)GlcNAc(b1-3)Gal(b1-4)GlcNAc(b1-3)Gal(b1-4)GlcNAc(b1-3)Gal(b1-4)GlcNAc(b1-6)]Man(a1-6)[Gal(b1-4)GlcNAc(b1-3)Gal(b1-4)GlcNAc(b1-3)Gal(b1-4)GlcNAc(b1-3)Gal(b1-4)GlcNAc(b1-2)Man(a1-3)]Man(b1-4)GlcNAc(b1-4)[Fuc(a1-6)]GlcNAc
# Procedure, shortened: as §1
# [7] = target: Gal(b1-4)GlcNAc(b1-3)Gal(b1-4)GlcNAc(b1-3)Gal(b1-4)GlcNAc(b1-3)Gal(b1-4)GlcNAc(b1-3)Gal(b1-4)GlcNAc(b1-2)Man(a1-3)[Gal(b1-4)GlcNAc(b1-3)Gal(b1-4)GlcNAc(b1-3)Gal(b1-4)GlcNAc(b1-3)Gal(b1-4)GlcNAc(b1-3)Gal(b1-4)GlcNAc(b1-2)Man(a1-6)]Man(b1-4)GlcNAc(b1-4)GlcNAc
# Procedure, shortened: as §1
# [8] = target: Gal(b1-4)GlcNAc(b1-3)Gal(b1-4)GlcNAc(b1-3)Gal(b1-4)GlcNAc(b1-3)Gal(b1-4)GlcNAc(b1-3)Gal(b1-4)GlcNAc(b1-2)Man(a1-3)[Gal(b1-4)GlcNAc(b1-3)Gal(b1-4)GlcNAc(b1-3)Gal(b1-4)GlcNAc(b1-3)Gal(b1-4)GlcNAc(b1-3)Gal(b1-4)GlcNAc(b1-2)Man(a1-6)]Man(b1-4)GlcNAc(b1-4)[Fuc(a1-6)]GlcNAc
# Procedure, shortened: as §1
# [9] = target: Gal(b1-4)GlcNAc(b1-3)Gal(b1-4)GlcNAc(b1-3)Gal(b1-4)GlcNAc(b1-3)Gal(b1-4)GlcNAc(b1-3)Gal(b1-4)GlcNAc(b1-2)[Gal(b1-4)GlcNAc(b1-3)Gal(b1-4)GlcNAc(b1-3)Gal(b1-4)GlcNAc(b1-3)Gal(b1-4)GlcNAc(b1-3)Gal(b1-4)GlcNAc(b1-6)]Man(a1-6)[Gal(b1-4)GlcNAc(b1-3)Gal(b1-4)GlcNAc(b1-3)Gal(b1-4)GlcNAc(b1-3)Gal(b1-4)GlcNAc(b1-3)Gal(b1-4)GlcNAc(b1-2)Man(a1-3)]Man(b1-4)GlcNAc(b1-4)[Fuc(a1-6)]GlcNAc
# Procedure, shortened: as §1
# [10] = target: Gal(b1-4)GlcNAc(b1-3)Gal(b1-4)GlcNAc(b1-3)Gal(b1-4)GlcNAc(b1-3)Gal(b1-4)GlcNAc(b1-3)Gal(b1-4)GlcNAc(b1-3)Gal(b1-4)GlcNAc(b1-2)Man(a1-3)[Gal(b1-4)GlcNAc(b1-3)Gal(b1-4)GlcNAc(b1-3)Gal(b1-4)GlcNAc(b1-3)Gal(b1-4)GlcNAc(b1-3)Gal(b1-4)GlcNAc(b1-3)Gal(b1-4)GlcNAc(b1-2)Man(a1-6)]Man(b1-4)GlcNAc(b1-4)GlcNAc
# Procedure, shortened: as §1
# [11] = target: Gal(b1-4)GlcNAc(b1-3)Gal(b1-4)GlcNAc(b1-3)GalNAc
# Procedure, shortened: as §1
# [12] = target: Gal(b1-4)GlcNAc(b1-3)Gal(b1-4)GlcNAc(b1-3)[Gal(b1-4)GlcNAc(b1-3)Gal(b1-4)GlcNAc(b1-6)]GalNAc
# Procedure, shortened: as §1
# [13] = target: Gal(b1-4)GlcNAc(b1-3)Gal(b1-4)GlcNAc(b1-6)[Gal(b1-3)]GalNAc
# Procedure, shortened: as §1
# [14] = target: Gal(b1-4)GlcNAc(b1-3)Gal(b1-4)[Fuc(a1-3)]GlcNAc(b1-3)Gal(b1-4)[Fuc(a1-3)]GlcNAc
# Procedure, shortened: as §1
# [15] = target: Gal(b1-4)GlcNAc(b1-3)GalNAc
# Procedure, shortened: as §1
# [16] = target: Gal(b1-4)GlcNAc(b1-3)[Fuc(a1-3)GlcNAc(b1-6)]Gal(b1-4)Glc
# Procedure, shortened: as §1
# [17] = target: Gal(b1-4)GlcNAc(b1-3)[Gal(b1-4)GlcNAc(b1-6)]Gal(b1-4)GlcNAc
# Procedure, shortened: as §1
# [18] = target: Gal(b1-4)GlcNAc(b1-3)[GlcNAc(b1-6)]Gal(b1-4)GlcNAc
# Procedure, shortened: as §1
# [19] = target: Gal(b1-4)GlcNAc(b1-6)Gal(b1-4)GlcNAc
# Procedure, shortened: as §1
binder,measurement,setting,value
Mnn9-2N3 (Aspergillus fumigatus) (protein) MAVARRMRRTNPITLLLAAILAIGFFIFVLSPSTTSASPVKAGSASSSSTSQQRREDNAAENPLSPPTKPFFKSQPVRHDGQQAPPPVVQYNLNQLSSTSTSAANGERILILTPMARFVPEYWDNVVKLTYPHELISIGFIIPKNKEGNAALAALEAAIAKTQSGPIDKRFASISILRQDFEPPLQSQDEKERHKISNQKARRESMSRARNSLLFTTLGPATAWVLWLDADIVETPPTLIQDLTAHDHPVLVPNCYQRYYNSEKKKMDVRPYDYNSWIDSSTAQSMAAEMGPDEILLEGYAEMPTYRTLMAHLADTANPNPKKVIELDGVGGTALMVKAEVHRDGAMFPAFPFYHLVETEGFAKMAKRLGYSVYGLPDYFVSRNFFFFFFFFFFG,glycan array binding signal (z-score),[1],0.904
same,glycan array binding signal (z-score),[2],0.388
same,glycan array binding signal (z-score),[3],0.946
same,glycan array binding signal (z-score),[4],0.632
same,glycan array binding signal (z-score),[5],0.427
same,glycan array binding signal (z-score),[6],1.27
same,glycan array binding signal (z-score),[7],0.483
same,glycan array binding signal (z-score),[8],-1.85
same,glycan array binding signal (z-score),[9],-0.091
same,glycan array binding signal (z-score),[10],0.92
same,glycan array binding signal (z-score),[11],-0.366
same,glycan array binding signal (z-score),[12],0.581
same,glycan array binding signal (z-score),[13],-1.14
same,glycan array binding signal (z-score),[14],0.024
same,glycan array binding signal (z-score),[15],-0.932
same,glycan array binding signal (z-score),[16],0.135
same,glycan array binding signal (z-score),[17],-0.266
same,glycan array binding signal (z-score),[18],0.182
same,glycan array binding signal (z-score),[19],-1.83

# Shown tab-delimited: entries from further up.
binder	measurement	setting	value
Mnn9-2N3 (Aspergillus fumigatus) (protein) MAVARRMRRTNPITLLLAAILAIGFFIFVLSPSTTSASPVKAGSASSSSTSQQRREDNAAENPLSPPTKPFFKSQPVRHDGQQAPPPVVQYNLNQLSSTSTSAANGERILILTPMARFVPEYWDNVVKLTYPHELISIGFIIPKNKEGNAALAALEAAIAKTQSGPIDKRFASISILRQDFEPPLQSQDEKERHKISNQKARRESMSRARNSLLFTTLGPATAWVLWLDADIVETPPTLIQDLTAHDHPVLVPNCYQRYYNSEKKKMDVRPYDYNSWIDSSTAQSMAAEMGPDEILLEGYAEMPTYRTLMAHLADTANPNPKKVIELDGVGGTALMVKAEVHRDGAMFPAFPFYHLVETEGFAKMAKRLGYSVYGLPDYFVSRNFFFFFFFFFFG	glycan array binding signal (z-score)	[1]	0.904
same	glycan array binding signal (z-score)	[2]	0.388
